Data on 8 molecules can be found in patent US20230109275A1 (AUTOLUS, published 2023).

The chains behind the UniProt entries cited, without tags or fusion partners. Residues count along the entry.
UniProt P01850, residues 1-129: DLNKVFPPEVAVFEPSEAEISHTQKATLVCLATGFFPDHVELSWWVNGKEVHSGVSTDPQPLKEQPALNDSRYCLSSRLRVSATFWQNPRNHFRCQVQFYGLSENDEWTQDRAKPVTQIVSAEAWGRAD

B1: Mut10 (antibody, V domains shown)
VH: QVQLVQSGAEVKKPGASVKVSCKASGYTFTGYVMHWVRQAPGQGLEWMGFINPYNDDIQSNERFRGRVTMTRDTSISTAYMELSRLRSDDTAVYYCARGAGMNFDGAYRFFDFWGQGTMVTVSS
VL: DIVMTQSPLSLPVTPGEPASISCRSSQRLVHSNGNTYLHWYLQKPGQSPRLLIYRVSNRFPGVPDRFSGSGSGTDFTLKISRVEAEDVGVYYCSQSTHVPYTFGQGTKLEIK
notes: Variant of hJOVI-1; captured by anti-human IgG in SPR; also called VH Y102M
B2: Mut14 (antibody, V domains shown)
VH: B1 VH with T28K, Y32F, A100N, M102Y, A107S
VL: B1 VL
notes: Variant of hJOVI-1; IgG format; also called VH T28K, Y32F, A100N, A107S
B3: Mut8 (antibody, V domains shown)
VH: B1 VH with G31S, M102Y
VL: B1 VL
notes: Variant of hJOVI-1; captured by anti-human IgG in SPR; also called VH G31S
B4: Mut11 (antibody, V domains shown)
VH: B1 VH with M102Y, G106A
VL: B1 VL
notes: Variant of hJOVI-1; IgG format; also called VH G106A; anti-TRBC1 antibody Mut11
B5: Mut12 (antibody, V domains shown)
VH: B1 VH with T28K, Y32F, A100N, M102Y, N103L
VL: B1 VL with N35K
notes: Variant of hJOVI-1; captured by anti-human IgG in SPR; also called VH T28K, Y32F, A100N, N103L; VL N35K
B6: Mut13 (antibody, V domains shown)
VH: B1 VH with T28K, Y32F, A100N, M102Y
VL: B1 VL with N35K
notes: Variant of hJOVI-1; captured by anti-human IgG in SPR; also called VH T28K, Y32F, A100N; VL N35K
B7: hJOVI-1 (humanised JOVI-1 antibody, reference antibody) (antibody, V domains shown)
VH: B1 VH with M102Y
VL: B1 VL
notes: Tested in IgG format and captured by anti-human IgG in SPR; also called aTRBC1; anti-TRBC1 antibody hJOVI-1
B8: Mut9 (antibody, V domains shown)
VH: B1 VH with G26P, T28K, M102Y
VL: B1 VL
notes: Variant of hJOVI-1; captured by anti-human IgG in SPR; also called VH G26P, T28K

Numbering of substitutions follows the chain as printed. In names and notes the source's numbering stands. These are yes or no findings as the source states them, for the method shown. Some binding calls cover weakened binding; strength is not graded here.

The first assay concerns the target TRBC1 (T cell receptor beta-chain constant domain 1), interaction partner protein injected in SPR (human) (UniProt P01850). Put plainly: SPR (Biacore T200), antibody captured on anti-human IgG chip, TRBC injected; target TRBC1 per paragraph 372 and Table 1, not printed on the sheet [Continued]. (In general: SPR reads the build-up and loss of mass on a sensor chip optically.)
On to B1, for which the binding entry is “binds”. For B2, the binding entry is listed as “binds”. Consider B3, for which the binding result is “binds”.

As for B4, the binding entry is listed as “binds”. The same measure, in the same setting: next, B5: “binds”; B6: “binds”.

A further assay has the same target. Kind of assay: SPR (Biacore T200), antibody captured on anti-human IgG chip, TRBC injected; target TRBC1 per paragraph 372 and Table 1, not printed on the sheet.
Consider B7, for which the binding result is listed as “binds”.

Turning to B8, the binding result is “binds”.

For the next assay the target is unchanged. Kind of assay: SPR, plot of kon against koff headed TRBC1; '868' is not explained in the filing.
In the case of B7, the binding result is recorded as “binds”.
